Results as given in the supplement of paper PMC12067093, “Discovery and optimisation of a covalent ligand for TRIM25 and its application to targeted protein ubiquitination” (Chemical Science, 2025).
The list shows a part of the results.

Compound: CC1Cc2ccccc2N1C(=O)C1CCCN(C1)C(=O)CCl (mixture of isomers) [TRIM25 ligand 11 (diastereomer mixture)]
Test: probe-labelled cysteine peptide fold change vs DMSO (competition) (log2 fold change); higher = less target engagement (more negative = stronger competition)
Details: THP-1, incubation time: 4 h
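Also: competitive chemoproteomic profiling in live THP-1 cells with an iodoacetamide desthiobiotin (IA-DTB) probe, comparing probe-labelled peptide intensities in compound-treated cells against DMSO-treated controls.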

| Target | probe-labelled cysteine peptide fold change (10 µM) | probe-labelled cysteine peptide fold change (50 µM) |
| --- | --- | --- |
| EFTUD2_Q15029_148_TCFVDCLIEQTHPEIR (UniProt Q15029) | 0.0976 | 0.00619 |
| EFTUD2_Q15029_166_RYDQDLCYTDILFTEQER (UniProt Q15029) | -0.108 | -0.0699 |
| EIF2A_Q9BY44_306_CDPVFDFGTGPR (UniProt Q9BY44) | 0.0225 | -0.0017 |
| EGLN1_Q9GZT9_21_QYCELCGK (UniProt Q9GZT9) | -0.111 | -0.00777 |
| EIF2S2_P20042_281+284_EYVTCHTCR (UniProt P20042) | -0.0193 | 0.0605 |
| EEF1G_P26641_266_KAAAPAPEEEMDECEQALAAEPK (UniProt P26641) | -0.276 | -0.245 |
| ECM1_Q16610_259_TRPHWCCTR (UniProt Q16610) | 0.0561 | 0.108 |
| EEF1A2_Q05639_326_GNVCGDSK (UniProt Q05639) | -0.132 | -0.176 |
| EHMT2_Q96KQ7_985_NITHLQHCTCVDDCSSSNCLCGQLSIR (UniProt Q96KQ7) | -0.14 | -0.237 |
| EDC3_Q96F86_311_RLEMTGVCASQMALTLLGGPNR (UniProt Q96F86) | -0.0187 | 0.0828 |
| EDC4_Q6P2E9_299_GHSTCLSEGALSPDGTVLATASHDGYVK (UniProt Q6P2E9) | 0.0628 | -0.195 |
| EIF2S1_P05198_70_IGRNECVVVIRVDK (UniProt P05198) | -0.393 | -0.163 |
| EIF3B_P55884_302_YWLEEAECRDQYSVIFESGDR (UniProt P55884) | 0.054 | 0.0705 |
| EHMT2_Q96KQ7_1115_FINHLCDPNIIPVR (UniProt Q96KQ7) | 0.137 | 0.316 |
| EEF1A1_P68104_234_DGNASGTTLLEALDCILPPTRPTDKPLR (UniProt P68104) | -0.206 | -0.265 |
| EEF2_P13639_728_CLYASVLTAQPR (UniProt P13639) | -0.0594 | -0.0645 |
| EFTUD2_Q15029_144_TCFVDCLIEQTHPEIRK (UniProt Q15029) | -0.25 | -0.112 |
| EHMT2_Q96KQ7_957_YISENCETSTMNIDR (UniProt Q96KQ7) | -0.0966 | -0.126 |
| EFTUD2_Q15029_525_VLGENYTLEDEEDSQICTVGR (UniProt Q15029) | 0.0278 | 0.109 |
| EFL1_Q7Z2Z2_124_ICDGCIIVVDAVEGVCPQTQAVLR (UniProt Q7Z2Z2) | -0.295 | 0.0324 |
| EHMT2_Q96KQ7_842_CDLHAVNYHGDTPLHIAAR (UniProt Q96KQ7) | 0.104 | 0.111 |

| Target | probe-labelled cysteine peptide fold change (10 µM) | probe-labelled cysteine peptide fold change (50 µM) |
| --- | --- | --- |
| EHMT1_Q9H9B1_1203_FINHHCEPNLVPVR (UniProt Q9H9B1) | -0.00325 | 0.177 |
| EIF2D_P41214_386_EQPYHPPDIKPLYCVPASMTLLFQESGHK (UniProt P41214) | -0.225 | -0.35 |
| EIF3A_Q14152_58_YLELCVDLRK (UniProt Q14152) | -0.202 | -0.0665 |
| EDC3_Q96F86_477_IYLCDIGIPQQVFQEVGINYHSPFGCK (UniProt Q96F86) | 0.0526 | 0.0231 |
| EEF1D_P29692_247_KLQIQCVVEDDKVGTDLLEEEITK (UniProt P29692) | -0.0807 | -0.177 |
| EDEM3_Q9BZQ6_82_LGNQVLEMFDHAYGNYMEHAYPADELMPLTCR (UniProt Q9BZQ6) | 0.0496 | -0.128 |
| EEF1A1_P68104_234_DGNASGTTLLEALDCILPPTRPTDKPLRLPLQDVYK (UniProt P68104) | -0.378 | -0.423 |
| EHMT1_Q9H9B1_627_VNNASYCPHCGEESSK (UniProt Q9H9B1) | 0.0768 | 0.0907 |
| EFTUD2_Q15029_144_TCFVDCLIEQTHPEIR (UniProt Q15029) | -0.151 | -0.0849 |
| EDRF1_Q3B7T1_1074_DAPCELLR (UniProt Q3B7T1) | 0.126 | 0.31 |
| EEF1G_P26641_194_WFLTCINQPQFR (UniProt P26641) | -0.0063 | 0.00592 |
| EDEM1_Q92611_529_CGYATLHHVIDK (UniProt Q92611) | 0.0724 | 0.192 |
| EEF2_P13639_651_IWCFGPDGTGPNILTDITK (UniProt P13639) | 0.041 | 5.9e-07 |
| EFL1_Q7Z2Z2_646_LLNQADPCVQILIQETGEHVLVTAGEVHLQR (UniProt Q7Z2Z2) | 0.0676 | 0.252 |
| EIF1_P41567_94_NICQFLVEIGLAK (UniProt P41567) | -0.205 | 0.00204 |
| EEF1G_P26641_266_AAAPAPEEEMDECEQALAAEPK (UniProt P26641) | 0.128 | -0.0815 |
| EEF1A1_P68104_363_NDPPMEAAGFTAQVIILNHPGQISAGYAPVLDCHTAHIACK (UniProt P68104) | -0.00529 | -0.121 |
| EIF2S3_P41091_96_LDDPSCPRPECYR (UniProt P41091) | 0.0208 | -0.0476 |
| EFTUD2_Q15029_476_IEHTYTGGVDSDLGEAMSDCDPDGPLMCHTTK (UniProt Q15029) | -0.11 | -0.51 |
| EEF2_P13639_651_KIWCFGPDGTGPNILTDITK (UniProt P13639) | -0.345 | -0.313 |
| EEF2_P13639_728_RCLYASVLTAQPR (UniProt P13639) | -0.16 | -0.103 |

| Target | probe-labelled cysteine peptide fold change (10 µM) | probe-labelled cysteine peptide fold change (50 µM) |
| --- | --- | --- |
| EIF2D_P41214_442_LDPILCDCILEK (UniProt P41214) | 0.0414 | 0.0783 |
| EED_O75530_254_IMSCGMDHSLK (UniProt O75530) | -0.0331 | -0.17 |
| EIF2B3_Q9NR50_379_SVIGSSCLIK (UniProt Q9NR50) | -0.0283 | -0.007 |
| ECPAS_Q5VYK3_1459_TSCALTIHAIGR (UniProt Q5VYK3) | -0.0778 | -0.0124 |
| EEF2_P13639_567_DLEEDHACIPIK (UniProt P13639) | 0.088 | -0.099 |
| EEF1A1_P68104_234_KDGNASGTTLLEALDCILPPTRPTDKPLR (UniProt P68104) | -0.271 | -0.439 |
| EIF1_P41567_94_KNICQFLVEIGLAK (UniProt P41567) | -0.379 | -0.165 |
| EDC3_Q96F86_272_EFCTDSGLVVPSISYELHKK (UniProt Q96F86) | -0.147 | -0.104 |
| EEF1A1_P68104_370_GNVAGDSKNDPPMEAAGFTAQVIILNHPGQISAGYAPVLDCHTAHIACK (UniProt P68104) | -0.346 | -0.402 |
| EIF2B2_P49770_194+198_FHVIVAECAPFCQGHEMAVNLSK (UniProt P49770) | 0.0395 | 0.398 |
| EDC4_Q6P2E9_976_LCTQLEGLQSTVTGHVER (UniProt Q6P2E9) | -0.0914 | 0.0799 |
| EIF2B3_Q9NR50_206_FHTGLVDAHLYCLKK (UniProt Q9NR50) | -0.323 | -0.0666 |
| EIF2S1_P05198_218_AGLNCSTENMPIK (UniProt P05198) | -0.0983 | -0.174 |
| EHHADH_Q08426_559_RYCPIPDVLCELGR (UniProt Q08426) | -0.0567 | -0.0384 |
| ECPAS_Q5VYK3_1183_ESSCLALNDLLR (UniProt Q5VYK3) | -0.109 | 0.226 |
| EEF1A1_P68104_234_KDGNASGTTLLEALDCILPPTR (UniProt P68104) | -0.177 | -0.132 |
| EIF2B4_Q9UI10_266_LKPYMSFLTQCRPLSASMHNAIK (UniProt Q9UI10) | -0.0998 | 0.0094 |
| EIF2S2_P20042_302_LYFLQCETCHSR (UniProt P20042) | 0.0321 | 0.0618 |
| EIF2S2_P20042_309_CSVASIK (UniProt P20042) | 0.0397 | 0.0388 |
| EEF2K_O00418_213_QVDIMQMCIIELK (UniProt O00418) | 0.23 | 0.115 |
| EHMT2_Q96KQ7_481_VALMVLCETHR (UniProt Q96KQ7) | -0.0165 | -0.0518 |

Looked up one by one from above (4):

| Target | probe-labelled cysteine peptide fold change (10 µM) | probe-labelled cysteine peptide fold change (50 µM) |
| --- | --- | --- |
| EDC3_Q96F86_272_EFCTDSGLVVPSISYELHKK (UniProt Q96F86) | -0.147 | -0.104 |
| EIF2B2_P49770_194+198_FHVIVAECAPFCQGHEMAVNLSK (UniProt P49770) | 0.0395 | 0.398 |
| EIF2S2_P20042_309_CSVASIK (UniProt P20042) | 0.0397 | 0.0388 |
| EED_O75530_254_IMSCGMDHSLK (UniProt O75530) | -0.0331 | -0.17 |

Remaining list, next part.

| Target | probe-labelled cysteine peptide fold change (10 µM) | probe-labelled cysteine peptide fold change (50 µM) |
| --- | --- | --- |
| ECM1_Q16610_384_THHHLCCR (UniProt Q16610) | 0.288 | 0.46 |
| EDC4_Q6P2E9_1130_SCQAMFQQINDSFR (UniProt Q6P2E9) | 0.091 | 0.0884 |
| EIF2S1_P05198_6_PGLSCR (UniProt P05198) | -0.0924 | 0.0162 |
| EDEM1_Q92611_629_VINSSSNCNR (UniProt Q92611) | 0.0336 | 0.0444 |
| EDEM1_Q92611_95_RPGPGMCGPANWGYVLGGR (UniProt Q92611) | -0.117 | -0.186 |
| ECPAS_Q5VYK3_1638_IVAISCAADILK (UniProt Q5VYK3) | 0.0975 | 0.182 |
| EIF1AY_O14602_51_LEALCFDGVKR (UniProt O14602) | -0.122 | 0.0628 |
| EHHADH_Q08426_559+566_YCPIPDVLCELGR (UniProt Q08426) | -0.196 | -0.249 |
| EEF2_P13639_591_ETVSEESNVLCLSK (UniProt P13639) | -0.101 | -0.265 |
| EDEM2_Q9BV94_408_VECGFATIK (UniProt Q9BV94) | -0.02 | 0.0494 |
| EIF2B5_Q13144_335_WVYPLTPEANFTDSTTQSCTHSR (UniProt Q13144) | -0.00347 | -0.183 |
| ECPAS_Q5VYK3_1257_TIAALLPCLLDK (UniProt Q5VYK3) | -0.0673 | -0.101 |
| EEF2_P13639_136_VTDGALVVVDCVSGVCVQTETVLR (UniProt P13639) | -0.229 | -0.371 |
| EIF2A_Q9BY44_80_AVCLEFSPK (UniProt Q9BY44) | -0.033 | 0.00415 |
| EFL1_Q7Z2Z2_953_GESPLTDCYGPFSGQLIATMK (UniProt Q7Z2Z2) | -0.055 | -0.00995 |
| ECT2_Q9H8V3_686_VETISLGEHPCDR (UniProt Q9H8V3) | 0.138 | -0.0735 |
| ECM1_Q16610_426_VTPNLMGHLCGNQR (UniProt Q16610) | 0.0595 | 0.088 |
| EIF2S1_P05198_70_NECVVVIR (UniProt P05198) | 0.0924 | 0.24 |
| EIF2B1_Q14232_115_IADLCHTFIK (UniProt Q14232) | -0.0863 | 0.0153 |
